Source: US20250115680A1 (PROFOUNDBIO US, published 2025)
Results are given in words; binding and its absence hold for the method and conditions named. Some binding calls cover weakened binding; strength is not graded here.

B1: murine antibody m2C5 (antibody, V domains shown)
VH: EVQLLSSGPELVTPGASVKISCKASGYTFTDYYINWLKQSHGKSLEWIGDINPNSGGPVYNQKFMAKATLTVDKTSNTAYMELRSLTSEDSAVYYCARGDYYGSNYNYWGQGTTLTVSS
VL: DILLTQSPAILSVSPGERVSFSCRASQNIGTSIHWYQQRTNGSPRLLIKFASESISGIPSRFSGSGSGTDFALTINSVESEDIADYYCQQSNNWPYTFGGGTKLEIK
notes: Mouse hybridoma clone, tested as culture supernatant
B2: murine antibody m2C8 (antibody, V domains shown)
VH: QIQLVQSGPELKKPGETVKISCKASGYTFTTYGMSWVKQAPGKGLKWMGWINTHSGVPTYVDEFKGRSAFSLETSASTAYLQINNLKNEDTATYFCARSPFDYGSRGAWFVYWGQGTLVTVSS
VL: DVLMTQTPLSLPVSLGDQASISCRSSQSIVHNNGDTYLEWYLQKPGQSPKLLIYKVSNRFPGVPDRFSGSGSGTDFTLKISRVEAEDLGLYYCFQGSHVPWTFGGGTKLEIK
notes: as for B1
B3: murine antibody m13C4 (antibody, V domains shown)
VH: EVKLVESGGGLVKPGGSLKLSCAASGFAFSTYDMFWFRQTPEKRLEWVATISSGGGYTYYPGSVKGRFTISRDNARNTLYLQMSSLRSEDTALYYCVRPLLRDSYFYFDVWGAGTTVTVSS
VL: DIVMTQSPAIMSTSPGEKVTMTCRASSSVSSSYLHWYQQKSGASPKLWIFRTSNLASGVPARFSGSGSGTSYSLTISSVEAEDAATYYCQQYSGYPLTFGAGTKLELK
notes: as for B1

Biological target: cynomolgus PTK7 extra-cellular domain (ECD) linked to His tag (cynomolgus monkey)
Test: ELISA screening of hybridoma supernatants on cynomolgus PTK7-his

binding, binds:
B1, B2, B3
